# Source: patent US20220133688A1, “MACROCYCLIC LACTONE ANTHELMINTICS AGAINST NEMATODES” (Bayer Animal Health GmbH, priority 2019, published 2022)
# For at least one compound, name, drawing or mass did not settle the structure.
# What was measured:
# [1] = test system: D. immitis Mf, Yazoo-2013 strain (resistant); assay: Cell attachment assay (canine PMN or PBMC attachment to Mf), Yazoo-2013 isolate; type: cell-based, Dirofilaria immitis; settings: Yazoo-2013 Mf
# [2] = test system: D. immitis Mf, Metairie-2014 strain (resistant); assay: Cell attachment assay (canine PMN or PBMC attachment to Mf), Metairie-2014 isolate; type: cell-based, Dirofilaria immitis; settings: Metairie-2014 Mf
compound,measurement,setting,value
"CO/N=C1\C[C@]2(C[C@@H]3C[C@@H](C/C=C(\C)C[C@@H](C)/C=C/C=C4\CO[C@@H]5[C@H](O)C(C)=C[C@@H](C(=O)O3)[C@]45O)O2)O[C@H](/C(C)=C/C(C)C)[C@H]1C [MOX, moxidectin]",effectiveness at promoting attachment compared with ivermectin,[1],more effective
same,effectiveness at promoting attachment compared with ivermectin,[2],more effective
